Measured values taken from PubChem BioAssay AID624297 (National Center for Advancing Translational Sciences (NCATS), 2012).
Hit rate of the full screen: of about 340,000 compounds, about 6,200 (1.8%) were called active. Inconclusive results, whose numbers are uncertain, are shown with a selection of clear calls. Calls follow the shape of the dose curve; as a rule, active = well fitted activation curve with a large enough effect; inconclusive = small, poorly fitted or top-dose-only effect; inactive = no such curve, though single readings can be large or run the other way. Where the call is inconclusive, the potency comes from a doubtful curve fit.

Test: A quantitative high throughput screen for small molecules that induce DNA re-replication in SW480 colon adenocarcinoma cells. Also: nearly all actives have a fitted effect of over 55% in size. As to re-replication activation: % of control where 0% means no effect.
Details: Hoechst DNA content imaging, 48 h; re-replication activation: at 46.1 µM (top of the series)
How it was run: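 Hoechst fluorescence of nuclei (405 nm excitation, 500-530 nm emission) measured by plate-scanning imager after 48 hr compound exposure at 37 C; re-replication scored as increased number of nuclei with elevated intensity.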
Potency is read from the fitted curve at half-maximal effect.

Row | Structure (SMILES) | Potency | re-replication activation
1 | COc1ccc(CN2CC(=O)N3[C@H]4c5cc(C)ccc5OC[C@@H]4[C@H](c4ccccc4)[C@]3(C)C2=O)cc1 | inconclusive: 32.6 µM [activator, partial curve, poor fit] | 
2 | Cc1ccc(C(C[N+](=O)[O-])Sc2ccc(N)cc2)cc1 (stereo unspecified) | inconclusive: 25.9 µM [activator, single point] | 
3 | Cc1ccc(N2C(S)=C(C#N)C(=O)NC23CCCCC3)cc1 | inconclusive: 32.6 µM [activator, partial curve, poor fit] | 
4 | CC(C)C[C@@H](CN1CCCC1CN1C(=S)NC[C@@H]1Cc1ccc(O)cc1)N1C[C@H](Cc2ccc(O)cc2)N(CC2CCCCCC2)C1=S (stereo partly specified) |  | inactive: 4.06%
5 | O=C1C(C2=NC(c3ccccn3)C3C(=O)N(c4ccccc4)C(=O)C23)=C(O)c2ccccc21 (stereo unspecified) |  | inactive: -3.07%
6 | COc1ccc(CCNC(=O)CSc2nc3[nH]ncc3c(=O)n2-c2ccc(C)c(Cl)c2)cc1OC | inconclusive: 6.51 µM [activator, partial curve, poor fit] | 
7 | O=C1/C(=N\S(=O)(=O)c2cccs2)C([n+]2ccccc2)=C([O-])c2ccccc21 | active: 11.6 µM | 
8 | COC(=O)[C@H](Cc1ccccc1)NC(=O)Cn1cnc2c(OCc3ccccc3)ncnc21 | inconclusive: 6.51 µM [activator, single point] | 
9 | O=C(Nc1nnc(-c2ccc(Cl)cc2)o1)Nc1ccccc1F |  | inactive: -5.05%
10 | O=C(NC1CCCc2ccccc21)C1CCN(S(=O)(=O)c2cccc(C(F)(F)F)c2)CC1 (stereo unspecified) | inconclusive: 0.103 µM [activator, full curve, poor fit] | 
11 | COc1ccc(CCNc2oc(COc3ccccc3F)nc2C#N)cc1OC |  | inactive: -6.04%
12 | COc1ccccc1NC(=O)CSCc1ccc([N+](=O)[O-])cc1 | inconclusive: 16.4 µM [activator, single point] | 
13 | COc1ccc(/C=C/C(=O)c2ccc(Cl)s2)cc1O | inconclusive: 29.1 µM [activator, single point] | 
14 | Cc1cc(CN2CCCC(CNC(=O)c3ccc(F)cc3)C2)cc(C)c1O (stereo unspecified) | inconclusive: 20.6 µM [activator, single point] | 
15 | Cc1cccc(C(=O)NNC(=S)NC(=O)c2cccs2)c1 |  | inactive: 22.5%
16 | O=C(O)c1ccccc1S(=O)(=O)Cc1ccccc1 | inconclusive: 29.1 µM [activator, single point] | 
17 | COc1cccc(/C=N/Nc2cc(Cl)nc(C)n2)c1O | active: 0.291 µM | 
18 | Cc1nc2ccccn2c1C(=O)N/N=C/c1ccc(CNC(=O)C(=O)Nc2ccccc2)o1 | inconclusive: 29.1 µM [activator, single point] | 
19 | COc1ccc(C)cc1-n1nnnc1SC/C(O)=C(\C#N)c1nc2ccccc2[nH]1 |  | inactive: 7.67%
20 | CCCCC(C(=O)NC(C)(C)C)N(Cc1ccccc1Cl)C(=O)c1snc(C(N)=O)c1N (stereo unspecified) |  | inactive: -3.15%
21 | Cc1ccc(CONC(=O)c2ccccc2)cc1 | inconclusive: 25.9 µM [activator, single point] | 
22 | COc1ccc(C(CNC(=O)Cc2ccc(-c3ccccc3)cc2)N(C)C)cc1 (stereo unspecified) | active: 18.4 µM | 

Row | Structure (SMILES) | Potency | re-replication activation
23 | COc1cccc(NC(=O)COC(=O)c2c(NC(C)=O)sc(C)c2C)c1 | inconclusive: 29.1 µM [activator, single point] | 
24 | COc1ccc(C2NC(=O)c3ccccc3O2)cc1 (stereo unspecified) |  | inactive: -15.4%
25 | CCCCn1c(SCC(=O)N2c3ccccc3Sc3ccccc32)nc2c1c(=O)n(C)c(=O)n2C | inconclusive: 23.1 µM [activator, single point] | 
26 | COc1ccc(CNC(=O)Cn2c(=O)n(CCC(=O)N3CCCCC3)c(=O)c3sccc32)cc1 | inconclusive: 9.2 µM [activator, single point] | 
27 | O=C(COC(=O)Cn1cnc2ccccc2c1=O)Nc1ccc(Cl)cc1 | inconclusive: 29.1 µM [activator, single point] | 
28 | CN1CCN(c2cc3c(c4c2[nH]c2ccccc24)C(=O)CC(C)(C)C3)CC1 | inconclusive: 20.6 µM [activator, single point] | 
29 | COc1ccccc1NC(=O)N1CCC(c2nc3cc(C)c(C)cc3[nH]2)CC1 | active: 5.8 µM | 
30 | COC(=O)c1c(NC(=S)NN2CCOCC2)sc2c1CCCC2 |  | inactive: 0.414%
31 | COc1ccc(Cc2nnc(NCCO)[nH]c2=O)cc1OC | inconclusive: 23.1 µM [activator, single point] | 
32 | O=C(Nc1cccc(C(F)(F)F)c1)Nc1ccc(N2CCCC2)c(S(=O)(=O)Nc2ccccc2Cl)c1 | inconclusive: 18.4 µM [activator, single point] | 
33 | Cc1ccc(/C=N/N(C)C2=NS(=O)(=O)c3ccccc32)cc1 | inconclusive: 32.6 µM [activator, partial curve, poor fit] | 
34 | COc1cccc(C(=O)COC(=O)C(C)N2C(=O)c3ccccc3C2=O)c1 (stereo unspecified) | inconclusive: 29.1 µM [activator, single point] | 
35 | Cc1onc(-c2ccccc2Cl)c1C(=O)N(Cc1nc(-c2ccccc2)no1)C1CCCCC1 | inconclusive: 14.6 µM [activator, partial curve, poor fit] | 
36 | COCCNC(=S)N/N=C(\C)c1ccc(O)cc1 | inconclusive: 29.1 µM [activator, partial curve, poor fit] | 
37 | CCCc1[nH][nH]c(=O)c1C(c1ccccc1)C(C#N)C#N (stereo unspecified) |  | inactive: 1.92%
38 | C=CCN(c1ccccc1OC)S(=O)(=O)c1ccc(Cl)c(C(=O)Nc2ccc(N3CCOCC3)cc2)c1 |  | inactive: -3.01%
39 | Oc1ccc(Oc2ccc3c(C(F)(F)F)cc(C(F)(F)F)nc3n2)cc1 | inconclusive: 18.4 µM [activator, partial curve, poor fit] | 
40 | COc1ccccc1NC(=O)c1ccc([N+](=O)[O-])o1 | active: 7.31 µM | 
41 | CC1Sc2ccc(S(=O)(=O)N3CCC(C(N)=O)CC3)cc2NC1=O (stereo unspecified) | inconclusive: 23.1 µM [activator, partial curve, poor fit] | 
42 | COc1cc(/C=N/Nc2cccc3cccnc23)cc(OC)c1O | inconclusive: 32.6 µM [activator, single point] | 
43 | CCn1c(-c2ccccc2)c(C(=O)CCl)c2ccccc21 | inconclusive: 23.1 µM [activator, single point] | 
44 | COCc1cc(C)nc(SCC[N+](C)(C)CC(=O)Nc2cccc(C(F)(F)F)c2)c1C#N |  | inactive: -4.04%

Row | Structure (SMILES) | Potency | re-replication activation
45 | c1ccc(C[n+]2csc3ccccc32)cc1 | inconclusive: 29.1 µM [activator, single point] | 
46 | CC1CC(C)(C)CC2(C1)NC(=O)N(CC(=O)NCc1ccccc1F)C2=O (stereo unspecified) | inconclusive: 11.6 µM [activator, partial curve, poor fit] | 
47 | COc1ccc(/C=C/c2nc(C#N)c(NCCN(C)C)o2)cc1OC | inconclusive: 32.6 µM [activator, partial curve, poor fit] | 
48 | Cc1ccsc1C(=O)Nc1n[nH]c(C(F)(F)F)n1 | inconclusive: 16.4 µM [activator, partial curve, poor fit] | 
49 | O=C(O)c1cc2nc(-c3cccs3)cc(C(F)(F)F)n2n1 | inconclusive: 14.6 µM [activator, single point] | 
50 | O=C1NC(c2ccccc2Cl)Nc2ccccc21 (stereo unspecified) | active: 16.4 µM | 
51 | O=C(CCN1C(=O)/C(=C\C=C\c2ccccc2)SC1=S)Nc1cccc(C(=O)O)c1 | inconclusive: 18.4 µM [activator, single point] | 
52 | COc1ccc(C)cc1-n1c(SCC(=O)Nc2cc(C)on2)nc2sc(C)c(C)c2c1=O | inconclusive: 32.6 µM [activator, partial curve, poor fit] | 
53 | COc1cc(CNCCc2ccccc2F)ccc1OCc1ccc(Cl)nc1 |  | inactive: -2.94% [at 9.22 µM]
54 | O=C(/C=C/c1ccccc1)NC(=S)Nc1ccc(N2CCOCC2)c(Cl)c1 | inconclusive: 9.2 µM [activator, partial curve, poor fit] | 
55 | CC(=O)Nc1cc(C(F)(F)F)ccc1Oc1cccc(Br)c1 | inconclusive: 23.1 µM [activator, single point] | 
56 | C/C(=N\NC(=O)c1cc(Br)ccc1O)c1ccccn1 | inconclusive: 29.1 µM [activator, single point] | 
57 | O=S(=O)(Nc1cccc(S(=O)(=O)N2CCCC2)c1)c1cccc(Br)c1 |  | inactive: 2.18%
58 | CCCCCCCCN1[C@@H](CC(=O)OCC)c2cc(F)ccc2S1(=O)=O | inconclusive: 0.92 µM [activator, single point] | 
59 | Cc1ccc(OCC(O)Cn2c(=N)n(CCN3CCCCC3)c3ccccc32)cc1 (stereo unspecified) | inconclusive: 29.1 µM [activator, single point] | 
60 | COc1c(C)cccc1C(=O)Nc1ccc(N2CCN(C(=O)c3ccccc3C)CC2)cc1 | inconclusive: 23.1 µM [activator, single point] | 
61 | COc1ccc(C2C(C#N)=C(SCC(=O)Nc3ccc(C)cc3)NC3=C2C(=O)CC(C)(C)C3)cc1 (stereo unspecified) | inconclusive: 23.1 µM [activator, single point] | 
62 | COc1ccccc1[C@H]1C(c2cccc(C)c2)=NN(c2ccccc2)[C@@H]1CO | active: 0.326 µM | 
63 | O=C(N=NC(=O)c1ccc2c(O)n(CC3CCCO3)c(O)c2c1)c1cccnc1 (stereo unspecified) |  | inactive: -4.61%
64 | CCOc1ccc(C2/C(=C(\O)c3ccc4c(c3)OCCO4)C(=O)C(=O)N2CCN2CCOCC2)cc1OCC (stereo unspecified) | inconclusive: 2.31 µM [activator, full curve] | 
65 | Cc1cc(N2CCCC2)ccc1NC(=O)COc1cccc(C(F)(F)F)c1 | inconclusive: 18.4 µM [activator, single point] | 
66 | Cc1ccc(S(=O)(=O)[N-]c2nc3ccccc3nc2-n2cc[n+](Cc3ccccc3)c2)cc1 | inconclusive: 23.1 µM [activator, single point] | 

From entry 8 as far as 21, copied from above:
Row | Structure (SMILES) | Potency | re-replication activation
8 | COC(=O)[C@H](Cc1ccccc1)NC(=O)Cn1cnc2c(OCc3ccccc3)ncnc21 | inconclusive: 6.51 µM [activator, single point] | 
9 | O=C(Nc1nnc(-c2ccc(Cl)cc2)o1)Nc1ccccc1F |  | inactive: -5.05%
10 | O=C(NC1CCCc2ccccc21)C1CCN(S(=O)(=O)c2cccc(C(F)(F)F)c2)CC1 (stereo unspecified) | inconclusive: 0.103 µM [activator, full curve, poor fit] | 
11 | COc1ccc(CCNc2oc(COc3ccccc3F)nc2C#N)cc1OC |  | inactive: -6.04%
12 | COc1ccccc1NC(=O)CSCc1ccc([N+](=O)[O-])cc1 | inconclusive: 16.4 µM [activator, single point] | 
13 | COc1ccc(/C=C/C(=O)c2ccc(Cl)s2)cc1O | inconclusive: 29.1 µM [activator, single point] | 
14 | Cc1cc(CN2CCCC(CNC(=O)c3ccc(F)cc3)C2)cc(C)c1O (stereo unspecified) | inconclusive: 20.6 µM [activator, single point] | 
15 | Cc1cccc(C(=O)NNC(=S)NC(=O)c2cccs2)c1 |  | inactive: 22.5%
16 | O=C(O)c1ccccc1S(=O)(=O)Cc1ccccc1 | inconclusive: 29.1 µM [activator, single point] | 
17 | COc1cccc(/C=N/Nc2cc(Cl)nc(C)n2)c1O | active: 0.291 µM | 
18 | Cc1nc2ccccn2c1C(=O)N/N=C/c1ccc(CNC(=O)C(=O)Nc2ccccc2)o1 | inconclusive: 29.1 µM [activator, single point] | 
19 | COc1ccc(C)cc1-n1nnnc1SC/C(O)=C(\C#N)c1nc2ccccc2[nH]1 |  | inactive: 7.67%
20 | CCCCC(C(=O)NC(C)(C)C)N(Cc1ccccc1Cl)C(=O)c1snc(C(N)=O)c1N (stereo unspecified) |  | inactive: -3.15%
21 | Cc1ccc(CONC(=O)c2ccccc2)cc1 | inconclusive: 25.9 µM [activator, single point] | 
